Measurements reported in PubChem BioAssay AID1259308 (NCATS, 2017).

- Aim: 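Knock-downs that increase output of a recombinant reporter protein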 (primary screen)
- System: human HEK293 embryonic kidney cells stably expressing firefly luciferase (HEK-CMV-Luc2-Hygro)
- Knock-down reagent: single siRNA against human genes, 0.8 pmol siRNA per well
- Duration: 72 h
- Measured: 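Reporter luminescence and viable-cell signal on separate replicate plates, given as percent of non-targeting control and median/MAD z-scores, plus per-cell luciferase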
- Direction: total luciferase, z-score and total luciferase, % of control: higher = more reporter protein produced; luciferase per cell, z-score: higher = more reporter output per viable cell; viable cells, % of control: higher = more viable cells
- Active means: 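Active when the median/MAD z-score for overall luciferase is greater than 3; a gene was taken forward for validation with new siRNAs if at least two of its three siRNAs passed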
- Meaning of the calls: active = raised luciferase; inactive = no rise
In all, the deposit lists about 59,000 reagents; shown is a random part of them. About 1,510 of them (2.6%) were called active. 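Calls use total luciferase alone and ignore viability, so some active siRNAs may act by altering cell number.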 Unmarked entries are inactive. The numbers tell different reagents against one gene apart.

| Target gene | reagent no. | total luciferase, z-score | total luciferase, % of control | luciferase per cell, z-score | viable cells, % of control |
| --- | --- | --- | --- | --- | --- |
| GSTM5 (GeneID 2949) | 1 | -0.262 | 76.7 | 1.87 | 52.4 |
| GSTM5 (GeneID 2949) | 2 | 0.171 | 85.3 | -0.204 | 101 |
| GSTM5 (GeneID 2949) | 3 | 4.82 (active) | 178 | 3.8 | 72.9 |
| RARRES1 (GeneID 5918) | 1 | 0.344 | 88.7 | 0.404 | 89.2 |
| RARRES1 (GeneID 5918) | 2 | -0.301 | 75.9 | -0.334 | 92.6 |
| RARRES1 (GeneID 5918) | 3 | -0.422 | 73.5 | -0.531 | 94.4 |
| KLHL28 (GeneID 54813) | 1 | 0.791 | 97.6 | 0.94 | 85.2 |
| KLHL28 (GeneID 54813) | 2 | -0.624 | 69.5 | -0.851 | 97.1 |
| KLHL28 (GeneID 54813) | 3 | 0.626 | 94.3 | 1.22 | 76.6 |
| GP6 (GeneID 51206) | 1 | -0.94 | 63.2 | -1.4 | 102 |
| GP6 (GeneID 51206) | 2 | 0.172 | 85.3 | -0.0621 | 96.9 |
| GP6 (GeneID 51206) | 3 | 0.273 | 87.3 | 0.289 | 90.4 |
| RAD54B (GeneID 25788) | 1 | 0.826 | 98.3 | 0.851 | 87.8 |
| RAD54B (GeneID 25788) | 2 | -1.19 | 58.3 | -1.35 | 92.8 |
| RAD54B (GeneID 25788) | 3 | -0.69 | 68.2 | -0.625 | 89.8 |
| ADAMTS15 (GeneID 170689) | 1 | 0.669 | 95.2 | 0.358 | 96.8 |
| ADAMTS15 (GeneID 170689) | 2 | -0.363 | 74.7 | -1.09 | 111 |
| ADAMTS15 (GeneID 170689) | 3 | -0.729 | 67.4 | -1.02 | 98.6 |
| CCDC150 (GeneID 284992) | 1 | 1.07 | 103 | 1.08 | 86.8 |
| CCDC150 (GeneID 284992) | 2 | -1.66 | 48.8 | -1.15 | 73.9 |
| CCDC150 (GeneID 284992) | 3 | 1.32 | 108 | 1.45 | 82.5 |
| POLR2K (GeneID 5440) | 1 | -1.88 | 44.5 | -0.773 | 61 |
| POLR2K (GeneID 5440) | 2 | 0.256 | 87 | -0.134 | 101 |
| POLR2K (GeneID 5440) | 3 | -2.26 | 37 | -2.6 | 82 |
| GLO1 (GeneID 2739) | 1 | -0.332 | 75.3 | -0.614 | 98.9 |
| GLO1 (GeneID 2739) | 2 | -1.33 | 55.4 | -1.43 | 90.3 |
| GLO1 (GeneID 2739) | 3 | 0.567 | 93.2 | 0.73 | 85.9 |
| GTPBP3 (GeneID 84705) | 1 | -0.586 | 70.2 | -0.627 | 92.6 |
| GTPBP3 (GeneID 84705) | 2 | -0.186 | 78.2 | -0.152 | 90.9 |
| GTPBP3 (GeneID 84705) | 3 | -0.381 | 74.3 | -0.568 | 96.4 |
| METTL22 (GeneID 79091) | 1 | -0.184 | 78.2 | -0.0727 | 89.1 |
| METTL22 (GeneID 79091) | 2 | -0.102 | 79.9 | -0.571 | 104 |
| METTL22 (GeneID 79091) | 3 | 0.15 | 84.9 | 0.0651 | 93.2 |
| CROCC2 (GeneID 728763) | 1 | -0.355 | 74.8 | -0.438 | 93.8 |
| CROCC2 (GeneID 728763) | 2 | 2.53 | 132 | 2.35 | 79.6 |
| CROCC2 (GeneID 728763) | 3 | -1.27 | 56.7 | -0.709 | 76.3 |
| KRTAP2-2 (GeneID 728279) | 1 | 0.245 | 86.8 | 1.04 | 73.7 |
| KRTAP2-2 (GeneID 728279) | 2 | -0.806 | 65.8 | -0.61 | 86.4 |
| KRTAP2-2 (GeneID 728279) | 3 | 0.387 | 89.6 | 0.215 | 94.6 |
